# Screening data

From PubChem BioAssay record AID1159506 (NCATS, 2015).

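Genome-wide siRNA knockdown in TC32 Ewing sarcoma cells, comparing luciferase light from an NR0B1-promoter reporter with a CMV-promoter reporter 48 hours after transfection.
Each siRNA was applied at 20 nM.
A z-score of the log NR0B1-over-CMV signal, less the median of siRNAs with the same seed; more negative means a stronger specific loss of the NR0B1 reporter.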

This is part of the screen; most of the strongest results are not listed here.
Sequences are the guide (antisense) strand, without overhang.

- ACCACGUAGACGUACAUGG against UTS2R : seed-corrected z-score -0.6388
- UCUGUCUCACGCGGAGUUG against CCDC106 : seed-corrected z-score 1.699
- UCAUGGUUCAGAGUGAGAG against RABEPK : seed-corrected z-score 1.476
- UUGGUUUAUGGAGCUGUGG against VSIG8 : seed-corrected z-score -1.075
- UAGAUGGUCACGUUCUCCC against ICAM5 : seed-corrected z-score -0.02399
- UCCUCAAAAAUUGAGAUGG against SERTAD4 : seed-corrected z-score 0.4755
- UGGAGUAUCAGUACAGCCC against ARSG : seed-corrected z-score -0.402
- UAGGAGUGGAGAUAGAUCU against CXorf67 : seed-corrected z-score -0.6979
- UAUCUGCAUUGUGACUAGC against RAB7A : seed-corrected z-score -0.01096
- UAUAUCCUAAAGCUGAUGG against RTN4 : seed-corrected z-score 0.2478
- UCGAUAUUCUUUAACUUGC against KIF20B : seed-corrected z-score -0.1261
- UAUUCAACUAGAUCUGUAG against FAM81B : seed-corrected z-score 1.17
- UUGCCUGCAAAAUGUAGUC against C3orf79 : seed-corrected z-score -0.3854
- UACUGGUCAAAUUUGGAGC against RSG1 : seed-corrected z-score 0.6347
- UCCAUUCACAUCCAGGCUC against FBXO44 : seed-corrected z-score -0.02614
- UCUCGAACAAUGAAUGAGC against TNS3 : seed-corrected z-score -0.102
- UUGUGAUGCAGACCCUUCC against GPI : seed-corrected z-score 0.1153
- UCACUGAUUGUUGACACUG against CALCRL : seed-corrected z-score -0.6092
- UUUCACAUUGGUCUAGCUG against HDDC2 : seed-corrected z-score 0.1675
- UCAUGAGCAGUGCAAAUCG against UMOD : seed-corrected z-score 1.94
- UGACUUCACACUCUGAAGC against TXN : seed-corrected z-score -1.252
- UAUUUCGCAGGAAUAGGUG against EFHC2 : seed-corrected z-score -0.6276
- UCAUGCUUUUCUUACAUCC against ZFYVE1 : seed-corrected z-score 1.078
- UAAAGAUACACUCAAACGC against LOC641737 : seed-corrected z-score 0.04657
- AACAGUGAAAGAAUGAAUC against GAS1 : seed-corrected z-score 1.295
- AUCUCUAAAUUCCUCUUUC against STX17-AS1 : seed-corrected z-score -0.09386
- UAAUAGGUGGGUCAUCUUG against TAPBPL : seed-corrected z-score 0.7
- UUAGUGAUAGCCUUCUUAG against HIST1H2BB : seed-corrected z-score 0.3275
- UUGUUACUAAGAUAAUUGG against SH3GLB1 : seed-corrected z-score 0.3651
- AAAGUACUCCUCCACGACG against GATC : seed-corrected z-score -0.4523
- AACUGUUCCUCUCAUGUCC against ADCY1 : seed-corrected z-score -0.7215
- AAAGAGCAUGGAAGUCACG against C1orf159 : seed-corrected z-score -0.1245
- AAACUUAUUCAACGCAUCC against MGAT4A : seed-corrected z-score -0.226
- ACCUUAGCAAUUGUCUUCC against TRO : seed-corrected z-score 0.1597
- UUUUUGUAAGUCACCGUCU against ARF6 : seed-corrected z-score 1.069
- UUUCCGAUACGCUUUAUUG against DNAJC27 : seed-corrected z-score 0.2227
- UCACGUUAUAGUUAGAAGC against PLEKHA5 : seed-corrected z-score -0.2375
- UGAACGGACAGUGUAACCC against RPP40 : seed-corrected z-score 1.091
- UGAGUAGCAGGGAGUAGUU against HES2 : seed-corrected z-score -0.1483
- UGAGCAUUGAGGUCUGCGC against ANKRD53 : seed-corrected z-score 0.7179
- AUUGAUAAAAGUCAGGGUC against TBC1D25 : seed-corrected z-score -0.3873
- UUGAAGAUAGGCAUGGAGG against PRUNE : seed-corrected z-score -0.328
- UAUCAAACCAGUCCGUCUC against BSN : seed-corrected z-score -1.018
- AUCAUAACUAGUUAGACUC against MCOLN3 : seed-corrected z-score 0.1035

2 of the entries, repeated:

* UCUCGAACAAUGAAUGAGC against TNS3 | seed-corrected z-score -0.102
* UUGAAGAUAGGCAUGGAGG against PRUNE | seed-corrected z-score -0.328